Test results published in US20220332759A1, “TARGETED PULMONARY DELIVERY COMPOSITIONS AND METHODS USING SAME” (Rutgers, The State University of New Jersey, priority 2019, published 2022).
No constants are given. Whether binding was seen depends on the method and setting. Some results given as binding are weak or reduced against the parent protein; the word gives no strength.

The chains behind the UniProt entries cited, without tags or fusion partners. Where a name states a change or a piece, a line headed by the entry shows the natural chain unless it says otherwise.
UniProt P26006: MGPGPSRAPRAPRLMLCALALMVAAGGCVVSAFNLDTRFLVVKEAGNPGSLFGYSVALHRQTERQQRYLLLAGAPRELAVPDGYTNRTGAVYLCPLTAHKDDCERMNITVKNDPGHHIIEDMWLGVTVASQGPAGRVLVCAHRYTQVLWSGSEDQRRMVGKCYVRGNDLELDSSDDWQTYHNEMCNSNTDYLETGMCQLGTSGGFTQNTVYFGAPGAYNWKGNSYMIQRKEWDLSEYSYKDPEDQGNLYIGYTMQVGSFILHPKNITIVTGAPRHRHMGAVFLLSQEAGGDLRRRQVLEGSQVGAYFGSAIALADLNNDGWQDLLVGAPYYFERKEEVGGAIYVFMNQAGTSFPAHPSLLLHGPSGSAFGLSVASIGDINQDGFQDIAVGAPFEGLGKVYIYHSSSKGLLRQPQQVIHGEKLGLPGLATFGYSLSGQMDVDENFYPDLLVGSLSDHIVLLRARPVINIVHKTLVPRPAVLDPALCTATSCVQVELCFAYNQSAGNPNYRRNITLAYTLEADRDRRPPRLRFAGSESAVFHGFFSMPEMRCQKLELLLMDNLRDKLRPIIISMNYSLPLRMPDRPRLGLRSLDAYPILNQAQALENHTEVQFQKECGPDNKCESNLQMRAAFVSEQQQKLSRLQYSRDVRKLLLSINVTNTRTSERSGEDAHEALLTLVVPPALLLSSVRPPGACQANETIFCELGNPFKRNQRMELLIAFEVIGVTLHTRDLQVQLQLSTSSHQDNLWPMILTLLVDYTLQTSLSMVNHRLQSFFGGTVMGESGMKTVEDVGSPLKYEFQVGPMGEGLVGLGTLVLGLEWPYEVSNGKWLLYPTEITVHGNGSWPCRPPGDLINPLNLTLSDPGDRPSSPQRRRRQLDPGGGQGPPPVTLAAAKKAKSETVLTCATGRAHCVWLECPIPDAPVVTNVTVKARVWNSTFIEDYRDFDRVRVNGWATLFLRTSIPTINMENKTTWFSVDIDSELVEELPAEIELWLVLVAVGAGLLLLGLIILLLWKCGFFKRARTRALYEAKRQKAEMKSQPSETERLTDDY
UniProt P05556: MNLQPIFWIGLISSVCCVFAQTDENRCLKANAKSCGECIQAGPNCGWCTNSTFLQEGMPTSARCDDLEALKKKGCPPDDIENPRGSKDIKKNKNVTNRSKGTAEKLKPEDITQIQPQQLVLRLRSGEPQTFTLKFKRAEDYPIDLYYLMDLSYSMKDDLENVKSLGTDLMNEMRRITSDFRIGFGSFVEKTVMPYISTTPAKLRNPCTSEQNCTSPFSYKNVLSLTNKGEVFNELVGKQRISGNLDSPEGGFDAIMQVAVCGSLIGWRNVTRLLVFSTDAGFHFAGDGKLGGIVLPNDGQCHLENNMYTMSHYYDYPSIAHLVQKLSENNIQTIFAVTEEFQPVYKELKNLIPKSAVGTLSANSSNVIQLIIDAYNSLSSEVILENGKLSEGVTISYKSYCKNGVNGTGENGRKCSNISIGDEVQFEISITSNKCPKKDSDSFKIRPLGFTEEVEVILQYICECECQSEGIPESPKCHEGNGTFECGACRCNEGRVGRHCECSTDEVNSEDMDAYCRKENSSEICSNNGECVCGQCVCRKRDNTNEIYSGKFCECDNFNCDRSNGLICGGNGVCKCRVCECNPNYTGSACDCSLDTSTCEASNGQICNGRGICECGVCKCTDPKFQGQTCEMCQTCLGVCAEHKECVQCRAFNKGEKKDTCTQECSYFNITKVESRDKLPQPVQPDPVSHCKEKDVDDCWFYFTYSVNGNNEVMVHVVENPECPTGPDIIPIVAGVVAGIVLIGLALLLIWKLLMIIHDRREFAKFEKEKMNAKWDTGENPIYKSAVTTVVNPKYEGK
UniProt Q62470: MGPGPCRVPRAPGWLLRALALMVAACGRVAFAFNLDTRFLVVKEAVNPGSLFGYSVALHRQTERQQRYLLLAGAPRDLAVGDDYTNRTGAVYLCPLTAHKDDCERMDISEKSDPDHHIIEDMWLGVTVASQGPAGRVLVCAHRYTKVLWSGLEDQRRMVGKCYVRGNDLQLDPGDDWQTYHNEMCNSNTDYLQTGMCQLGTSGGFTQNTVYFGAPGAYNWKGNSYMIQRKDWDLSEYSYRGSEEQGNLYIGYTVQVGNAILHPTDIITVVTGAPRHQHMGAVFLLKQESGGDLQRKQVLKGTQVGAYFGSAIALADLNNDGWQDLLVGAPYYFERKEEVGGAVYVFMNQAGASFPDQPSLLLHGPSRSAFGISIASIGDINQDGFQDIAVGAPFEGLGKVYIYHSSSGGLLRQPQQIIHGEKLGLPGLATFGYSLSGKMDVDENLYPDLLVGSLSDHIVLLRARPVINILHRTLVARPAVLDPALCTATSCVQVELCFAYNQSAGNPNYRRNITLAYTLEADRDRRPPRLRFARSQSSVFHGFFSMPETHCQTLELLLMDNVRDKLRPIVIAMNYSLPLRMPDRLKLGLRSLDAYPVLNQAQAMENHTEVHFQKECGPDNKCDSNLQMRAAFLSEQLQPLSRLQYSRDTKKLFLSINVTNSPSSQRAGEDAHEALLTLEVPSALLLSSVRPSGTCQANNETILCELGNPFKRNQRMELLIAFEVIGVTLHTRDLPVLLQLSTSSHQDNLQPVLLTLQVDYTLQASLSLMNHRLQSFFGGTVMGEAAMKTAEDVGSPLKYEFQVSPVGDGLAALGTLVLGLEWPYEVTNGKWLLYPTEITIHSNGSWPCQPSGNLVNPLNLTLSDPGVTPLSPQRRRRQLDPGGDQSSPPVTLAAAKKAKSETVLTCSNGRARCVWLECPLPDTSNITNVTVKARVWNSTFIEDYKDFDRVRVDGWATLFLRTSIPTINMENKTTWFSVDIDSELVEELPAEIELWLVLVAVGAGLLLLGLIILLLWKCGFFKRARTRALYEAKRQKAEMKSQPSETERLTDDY
UniProt P09055: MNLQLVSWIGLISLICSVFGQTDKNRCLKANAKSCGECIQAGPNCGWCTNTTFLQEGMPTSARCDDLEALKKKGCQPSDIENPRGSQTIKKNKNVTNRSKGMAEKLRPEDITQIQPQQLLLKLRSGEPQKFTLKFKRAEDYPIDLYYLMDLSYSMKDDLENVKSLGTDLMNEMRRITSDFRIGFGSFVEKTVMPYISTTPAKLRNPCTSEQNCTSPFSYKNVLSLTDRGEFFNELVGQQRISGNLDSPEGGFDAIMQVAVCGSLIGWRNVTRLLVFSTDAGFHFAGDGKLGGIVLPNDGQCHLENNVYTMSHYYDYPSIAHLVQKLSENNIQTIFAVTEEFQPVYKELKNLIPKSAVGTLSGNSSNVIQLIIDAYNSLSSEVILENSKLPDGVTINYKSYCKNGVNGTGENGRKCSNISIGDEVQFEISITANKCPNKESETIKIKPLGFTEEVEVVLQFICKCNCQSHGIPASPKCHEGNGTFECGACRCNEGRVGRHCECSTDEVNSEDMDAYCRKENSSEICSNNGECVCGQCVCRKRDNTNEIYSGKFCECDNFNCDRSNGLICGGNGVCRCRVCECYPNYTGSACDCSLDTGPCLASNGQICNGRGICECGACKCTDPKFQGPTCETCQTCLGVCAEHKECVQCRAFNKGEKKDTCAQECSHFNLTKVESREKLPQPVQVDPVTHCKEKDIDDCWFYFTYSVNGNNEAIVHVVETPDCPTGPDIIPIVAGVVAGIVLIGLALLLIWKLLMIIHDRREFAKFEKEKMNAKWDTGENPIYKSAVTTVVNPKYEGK

Key:
[1] = target: T1, endogenous α3β1 integrins expressed on the surface of human alveolar epithelial adenocarcinoma cells (A549) (human) (UniProt P26006+P05556); assay: summary of A549 binding and Transwell assays
[2] = target: T2, mouse α3β1 integrin expressed on the plasma membrane of AT1 and AT2 alveolar epithelial cells and club cells (mouse) (UniProt Q62470+P09055); assay: immunofluorescence co-localisation in mouse lung sections
[3] = target: T3, human recombinant α3β1 integrin (human, UniProt P26006 33-991; P05556 21-728); assay: phage binding to immobilised recombinant protein (FIG. 3A)
T3 construct: Bought protein, 100 ng immobilised in microtiter wells; also called α3β1 integrins

[4] = target: T1, endogenous α3β1 integrins expressed on the surface of human alveolar epithelial adenocarcinoma cells (A549) (human); assay: BRASIL phage binding on A549 cells carrying endogenous α3β1
[5] = target: T3, human recombinant α3β1 integrin; assay: cell-free phage binding to immobilised recombinant proteins, relative TU
[6] = target: T2, mouse α3β1 integrin expressed on the plasma membrane of AT1 and AT2 alveolar epithelial cells and club cells (mouse); assay: confocal immunofluorescence of mouse lung sections after aerosol administration
[7] = target: T2, mouse α3β1 integrin expressed on the plasma membrane of AT1 and AT2 alveolar epithelial cells and club cells (mouse); assay: TU count of phage recovered from flow-sorted mouse lung cells after aerosol administration
[8] = target: T2, mouse α3β1 integrin expressed on the plasma membrane of AT1 and AT2 alveolar epithelial cells and club cells (mouse); assay: immunofluorescence of mouse lung sections after aerosol administration of phage (FIGS. 4A-4F)
[9] = target: T2, mouse α3β1 integrin expressed on the plasma membrane of AT1 and AT2 alveolar epithelial cells and club cells (mouse); assay: flow sorting of mouse lung cells after aerosol administration of phage, TU count (FIGS. 5A-5B)

Measured: binding

CAKSMGDIVC (peptide, not shown: large carriers, cyclic peptide (CX8C insert) (so in the source)) [targeted …-displaying phage particles]
binds: all assays above
